These results are taken from ChEMBL document CHEMBL4425130, “Macrocyclic Prodrugs of a Selective Nonpeptidic Direct Thrombin Inhibitor Display High Permeability, Efficient Bioconversion but Low Bioavailability” (J Med Chem, 2016).

Values after ≈ are worked out from the molar mass of the structure shown.

Series [1] is described as follows: Solubility of the compound in phosphate buffer at pH 7.4 at 25 degC after 24 hrs by ultraperformance LC/MS/MS method.
The nature of a further series: physchem. Conditions: octanol/water, pH 7.4.

As to `COC(=O)NCc1ccc(Cl)cc1CNC(=O)CC1=C(C)CCN(NCc2cccc(C(=O)OC)c2)C1=O`, in series [1], the solubility at 24 h was 160 µM (≈ 86.9 µg/mL). Also, the logD at 3 h in the series “physchem” was 2.9.

The solubility is how much of the substance goes into solution per volume. Low readings indicate little dissolved substance, high ones much dissolved substance. What is called logD is the decadic logarithm of the distribution of all forms, ionised or not, between an organic phase and buffer at a given pH. A low value points to a more hydrophilic compound.
